Results reported in PMC12040169 (PLOS Biology, 2025).
Some of the results follow.

The compounds below were run on T1, CTL2-GFP (C. trachomatis L2/434/Bu, GFP-expressing). Settings: bulk GFP, single well; 28.5 h, 10 µM; inhibitor.
T1 construct: L2/434/Bu, GFP-expressing
Set-up: species or system HeLa; Intracellular C. trachomatis growth in HeLa cells, bulk GFP fluorescence relative to DMSO

| SMILES | % of control remaining |
| --- | --- |
| Cc1ccc(-c2noc(CN(C(=O)CCc3ccccc3)C(C)C)n2)cc1 [CBK269313] | 105.36% |
| O=C(NC(Cc1cccs1)c1nccs1)c1cc[nH]n1 (stereo not shown) [CBK285052] | 143.329% |
| CCN(CC)CCNC(=O)c1ccc(NS(=O)(=O)c2cc(C(=O)O)ccc2OC)cc1 [CBK296962] | 132.224% |
| CN(C)CCN(C)C(=O)c1ccc(-c2ccc3c(c2)OCO3)nc1N(C)C [CBK106072] | 99.0967% |
| CCCCN1CCC(C(=O)Oc2ccc(OC)c3ccccc23)CC1 [CBK122682] | 87.3711% |
| COc1cc(NC(=O)Nc2ccc3ccc(Cl)nc3n2)cc(OC)c1OC [CBK115933] | 116.071% |
| N#Cc1ccccc1N1CCN(c2cncc(-c3cccc4cccnc34)n2)CC1 [CBK037366] | 167.912% |
| Nc1ncc(-c2ccc(C(=O)N3CCOCC3)cc2)cc1C(=O)Nc1ccc(C(F)(F)F)cc1 [CBK160204] | 82.4344% |
| OC1(Cn2cnc3ccccc32)CCN(Cc2cccc(F)c2)CC1 [CBK284663] | 162.864% |
| CCCC(=O)Nc1ccc(-c2csc(NC(=O)C3CCCO3)n2)cc1 (stereo not shown) [CBK305854] | 95.2775% |
| Cc1ccc(S(=O)(=O)NCC(c2ccccc2)N2CCN(CCC#N)CC2)cc1 (stereo not shown) [CBK262865] | 131.342% |
| CC1CC(C)CN(CCCNS(=O)(=O)c2ccc3c(c2)oc(=O)n3C)C1 (stereo not shown) [CBK268695] | 131.909% |
| CC(c1ccc(F)c(F)c1)N(C)C(=O)Cn1cnnc1[S+](C)[O-] (stereo not shown) [CBK305311] | 144.302% |
| c1ccc(CN2CC[C@H](Nc3nccnc3-c3cccnc3)C2)cc1 [CBK036978] | 169.753% |
| CCOc1ccccc1N(CC(=O)O)S(=O)(=O)c1ccc(Cl)cc1 [CBK287144] | 92.3946% |
| Cc1cccn2cc(C(=O)N(C)CCn3ccnc3C)nc12 [CBK281735] | 143.937% |
| S=C(NCc1ccc(Cl)cc1)Nc1ccncc1 [CBK016651] | 112.451% |
| Cc1cc2ncn(CC(=O)Nc3c(C)noc3C)c2cc1C [CBK200222] | 110.823% |
| CN(Cc1ccc(CN2CCOC(c3ccccc3)C2)o1)S(C)(=O)=O (stereo not shown) [CBK306808] | 137.086% |
| CCN(C(=O)c1cc2ccc(N(C)C)cc2[nH]1)C1CCN(C)CC1 [CBK281867] | 93.0421% |
| O=S(=O)(NCCOCc1ccccc1)c1ccc2c(c1)Cc1ccccc1-2 [CBK266032] | 124.335% |
| C=CCNC(=O)CCc1nc(-c2cccc(OC)c2)no1 [CBK268981] | 128.654% |
| CCOC(=O)c1c(NC(=O)CSc2nnc3ccccn23)sc2c1CCC(C)C2 (stereo not shown) [CBK265668] | 100% |
| Cc1ccc(C)c(Nc2nc3nonc3nc2N2CCOCC2)c1 [CBK262491] | 105.433% |
| CCNC(=O)c1ccc(-n2cccn2)c(C#Cc2ccccn2)c1 [CBK283125] | 102.253% |
| COc1ccc2ncc3c(-c4ccccc4)n[nH]c3c2c1 [CBK288052] | 139.079% |
| Nc1ccc2ccc(-c3ccccc3)nc2n1 [CBK061865] | 125.713% |

| SMILES | % of control remaining |
| --- | --- |
| CN1CCN(c2ccc(NC(=S)NC(=O)c3cc(Br)ccc3Cl)cc2)CC1 [CBK266254C] | 152.335% |
| CC1(C)CC(N(Cc2c[nH]cn2)Cc2ccccc2F)CC(C)(C)N1 [CBK282579] | 107.112% |
| CC(=O)Nc1ccc(Oc2cc(C)nc(C3CCCNC3)c2)cc1 (stereo not shown) [CBK283443] | 126.176% |
| COc1ccc2nc(-c3ccc(F)c(NC(=O)c4ccccc4)c3)cn2n1 [CBK287827] | 115.929% |
| COc1ccc(OC)c(-n2c(C)cn3c4c(=O)[nH]c(=O)n(C)c4nc23)c1 [CBK141314] | 70.8983% |
| O=C(Cc1ccccn1)N1CCc2ccccc2C1 [CBK200334] | 115.512% |
| Cc1ccccc1OCC(O)CNC(=O)c1ccccc1C(=O)O (stereo not shown) [CBK264824] | 138.106% |
| CNC(=O)NC(=O)C1CCN(CCc2ccccc2)CC1 [CBK034956] | 107.696% |
| O=C(Nc1cccc2ccccc12)C1CCCN1S(=O)(=O)c1ccc(Cl)cc1 (stereo not shown) [CBK138930] | 129.918% |
| Cc1nnc(SCc2cc(=O)[nH]c(N3CCN(c4ccccc4F)CC3)n2)s1 [CBK270017] | 122.567% |
| O=C1Cc2ccccc2C2(CCN(C(=O)Nc3c(F)cccc3F)CC2)N1 [CBK047296] | 100% |
| Cc1nc[nH]c1CN(CCCn1ccnc1)Cc1ccccc1Cl [CBK282473] | 147.176% |
| COc1ccccc1-c1nccnc1OCc1ccccc1 [CBK106817] | 72.7595% |
| Cc1nc(CC(=O)NC2CCCN(c3ccn(C)n3)C2=O)c(C)s1 (stereo not shown) [CBK304422] | 132.001% |
| Cc1cc2ncn(CC(=O)N3CCc4ccccc43)c2cc1C [CBK200270] | 85.4647% |
| CC1CCN(S(=O)(=O)c2cccc(C(=O)NNC(=O)c3cccc([N+](=O)[O-])c3)c2)CC1 [CBK266774] | 138.022% |
| Cc1nc2ccc(C(=O)c3ccccc3O)cn2c(=O)c1CCC(=O)O [CBK295618] | 125.571% |
| Cn1ccnc1C1(O)CC2CCC(C1)N2C(=O)Nc1ccc(F)cc1 (stereo not shown) [CBK284051] | 137.309% |
| CNC(=O)C1(Cc2ccccc2-c2cccs2)CCN(C(=O)Cc2cccc(C)c2)CC1 [CBK285686] | 112.054% |
| CC(C)C(NS(=O)(=O)c1ccc2ccccc2c1)C(=O)O (stereo not shown) [CBK286919] | 117.346% |
| Cn1ccc(C2CCCCCN2S(=O)(=O)c2ccc(F)cc2)n1 (stereo not shown) [CBK284671] | 112.376% |
| COc1cccc(CNC(=O)C2CCCN(c3nc4c(-c5ccccc5)csc4c(=O)[nH]3)C2)c1 (stereo not shown) [CBK215463] | 137.795% |
| CC(Sc1nnc2[nH]c3ccccc3n12)C(=O)O (stereo not shown) [CBK265822] | 191.416% |
| CN(C)C(=O)CCc1nc(-c2ccccn2)no1 [CBK297735] | 148.33% |
| CC(=O)ON=C1c2cc(S(=O)(=O)N(C)C)ccc2-c2ccc(S(=O)(=O)N(C)C)cc21 [CBK262807] | 126.135% |
| Cc1ccc(S(=O)(=O)Nc2nnc(SCC(=O)Nc3ccc4c(c3)OCO4)s2)cc1 [CBK026675] | 101.592% |
| Cc1csc(N2CCN(CC(O)COCc3ccco3)CC2)n1 (stereo not shown) [CBK306151] | 116.651% |

| SMILES | % of control remaining |
| --- | --- |
| CN1CCN(S(=O)(=O)c2ccc3oc(=O)ccc3c2)CC1 [CBK062431] | 110.397% |
| O=C(O)c1cc(C(=O)O)n(Cc2ccc(Cl)cc2Cl)n1 [CBK268283] | 87.4296% |
| N#CC(CCCN1CCN(c2ccccc2)CC1)(c1ccccc1)c1ccccc1 [CBK002243C] | 53.3009% |
| O=C(Nc1ccc(Br)cc1C(=O)O)c1cccs1 [CBK066822] | 144.99% |
| COc1cccc(-c2ccc(NS(=O)(=O)c3ccc4c(c3)CCC(=O)N4)cc2)c1 [CBK286373] | 100.327% |
| c1cncc(-c2nnc([C@H]3CCN(C4CCOCC4)C3)o2)c1 [CBK289398] | 123.878% |
| Cn1c(N)c(C(=O)NCC2CCCO2)c2nc3ccccc3nc21 (stereo not shown) [CBK269342] | 135.087% |
| O=C(CC(CN1CCN(c2cccc(Cl)c2)CC1)C(=O)O)NCc1ccccc1 (stereo not shown) [CBK286787] | 112.324% |
| COc1ccc(C(C)(C)C)cc1NC(=O)c1ccncc1 [CBK288248] | 134.819% |
| CCN(CC)C(=O)Cn1ncc2c3sc(C)cc3n(C)c2c1=O [CBK284156] | 114.775% |
| CN(C(=O)CN1CSCC1=O)c1nc2c(s1)CC(c1ccccc1)CC2 (stereo not shown) [CBK305526] | 90.472% |
| Cc1ccc(OCC(=O)Nc2ccc3c(c2)nc2n3CCOC2)cc1 [CBK288005] | 99.7933% |
| CC(=O)c1cccc(-c2cnc(Nc3ccc(N4CCOCC4)cc3)c3nccn23)c1 [CBK091217] | 84.3841% |
| COC(=O)c1ccc(NC(=O)CNc2ccccc2)cc1 [CBK268064] | 121.061% |
| CCOC(=O)N1CCC(NC(=O)N(CCCN(C)C)Cc2ccc3c(c2)OCO3)CC1 [CBK159231] | 102.229% |
| CC(C)(CN)CN(Cc1ccc(-c2ccccc2)cc1)C(=O)Nc1ccccc1C(C)(C)C [CBK002476C] | 46.9344% |
| Cc1nnc(SCC(=O)N2c3ccccc3Sc3ccccc32)n1N [CBK265920] | 116.609% |
| CCOC(=O)c1[nH]c2ccccc2c1NS(=O)(=O)c1ccc(OC)c(OC)c1 [CBK047421] | 115.602% |
| COc1ccc([N+](=O)[O-])cc1NC(=O)c1cc(-c2ccccc2Cl)nc2ccc(C)cc12 [CBK267764] | 113.7% |
| CCN1CC2(CCC1=O)CCN(Cc1cccc(CCN)c1)CC2 [CBK306823] | 137.228% |
| CN(C)C(=O)CN1N=C(C(C)(C)C)Cn2c(cc3sccc32)C1=O [CBK284116] | 134.824% |
| CC(C)c1ccc(C(C)NC(=O)c2ccc(=O)n(CC(=O)N3CCCCC3)c2)cc1 (stereo not shown) [CBK286084] | 121.794% |
| O=C(O)C(=N\Nc1ccccc1)/C(=N/Nc1ccccc1)C(=O)O [CBK278303N] | 107.806% |
| O=C(CSc1ccccc1)c1ccccc1 [CBK002224] | 161.207% |
| COCC(C)NS(=O)(=O)c1cc(C)ccc1OC (stereo not shown) [CBK270037] | 132.31% |

2 compounds drawn at random from the list so far:

| SMILES | % of control remaining |
| --- | --- |
| O=C(CSc1ccccc1)c1ccccc1 [CBK002224] | 161.207% |
| CC(C)(CN)CN(Cc1ccc(-c2ccccc2)cc1)C(=O)Nc1ccccc1C(C)(C)C [CBK002476C] | 46.9344% |
